The record followed here is US20110065633A1 (INDIANA UNIVERSITY RESEARCH AND TECHNOLOGY CORPORATION, priority 2008, published 2011).

The series is described as follows: solid-phase peptide synthesis.
Where [1] appears, read: whole synthesis, analytical HPLC, C18 Vydac, UV 214 nm, scale of the general procedure 0.2 mmol (Boc/PAM), 0.1 mmole (Fmoc).
Setting [2] is: whole synthesis, scale 0.1 mmole.

As for “H2N-Phe-Thr-Ser-homoCys(SO3H)-Tyr-Ser-Lys-Tyr-Leu-Asp-Ser-Arg-Arg-Ala-Gln-Asp-Phe-Val-Gln-Trp-Leu-Met-Asn-Thr-NH2”, where the note is “whole synthesis”, the isolated mass is 15˜20 mg. Besides, the “final HPLC purity” value under setting [1] came out at 95%. Further, the isolated yield (whole synthesis, overall, scale of the general procedure 0.2 mmol (Boc/PAM), 0.1 mmole (Fmoc)) is on record as 10˜15% yield totally. Besides, the crude mass (whole synthesis, scale 0.05 mmole) is on record as 100˜130 mg.

For the substance “[PLA6, E9, C24(40K)]glucagon (6-29) amide”, for the setting “conjugation step, 214 nm”, the “final HPLC purity” value came out at 90% HPLC purity.

Consider [PLA6, E9]glucagon(6-29) amide, for which the “final HPLC purity” value under setting [1] turned out to be 95%. Moreover, under setting [2], the crude mass is 200˜250 mg and the isolated mass was 25˜40 mg.
